## Primary screen of a compound library

By UniProt entry, the sequences of proteins in these tests, tags left out.
UniProt P9WFT3, whole entry: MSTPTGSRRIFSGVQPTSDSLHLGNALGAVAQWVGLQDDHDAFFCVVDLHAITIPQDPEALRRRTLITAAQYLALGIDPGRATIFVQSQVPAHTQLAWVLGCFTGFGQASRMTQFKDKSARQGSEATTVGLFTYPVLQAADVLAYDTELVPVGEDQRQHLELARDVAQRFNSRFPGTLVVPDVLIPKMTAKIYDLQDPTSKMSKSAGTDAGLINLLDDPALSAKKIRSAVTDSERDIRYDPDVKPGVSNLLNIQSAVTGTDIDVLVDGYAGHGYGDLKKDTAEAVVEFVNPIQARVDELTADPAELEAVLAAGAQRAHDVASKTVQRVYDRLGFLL

Results are given as percent effect.
How 0% and 100% were set is not recorded. Most values in the screen are low, and negative values occur.
Compounds were drawn at random from those tested, without regard to their results.
Two or more numbers in one place are separate tests of the same structure; such repeats can differ widely.
A dash means the value is not listed here; it may have been measured.

MtTrpRS: 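Enzyme assay of tryptophanyl-tRNA synthetase; the read-out is not stated. Target: Tryptophan-tRNA ligase, Mycobacterium tuberculosis (UniProt P9WFT3). Concentration: 10 µM. Direction is not recorded; retested compounds ran higher, which suggests that high means inhibition. Size under these conditions: about 65,000 compounds, about 64 of them at 50% or above in at least one test.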
Leishmania in macrophages: 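Cell assay of Leishmania donovani living inside macrophages; the read-out is not stated. Concentration: 30 µM. The record gives no direction; compounds that gave an IC50 in retests scored well above the rest, so higher reads as stronger inhibition. Of about 69,000 compounds tested this way, about 1,000 (1.5%) reached 50% or more in at least one test.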

For CN(c1cccc(C#N)c1)S(=O)(=O)c1cc(C(=O)O)ccc1Cl the result was MtTrpRS: -1.071%; Leishmania in macrophages: -2.846%. Result for COc1cc(CNCCn2cc(C)cn2)cc2c1OCCO2 was MtTrpRS: 2.08%; Leishmania in macrophages: 26.53%. For CCn1ccnc1CN1C[C@@H](CN2CCCC2)[C@@H](CO)C1 the result was MtTrpRS: -1.471%; Leishmania in macrophages: -8.311%. O=C(O)C(F)(F)F.[H][C@@]12CNCC[C@]1([H])OC[C@H](C(=O)NCCc1cccs1)C2 read Leishmania in macrophages: -4.443%. With O=C(c1ccc(-c2nc[nH]n2)cc1)N1CC[C@H](CO)[C@@H](O)C1 the screen gave MtTrpRS: -1.102%; Leishmania in macrophages: 28.4%.

Result for O=C(O)C(F)(F)F.O=C(O)C(F)(F)F.[H][C@]12CCC[C@@]1(COc1ccccn1)CN(c1ncc(F)cn1)C2 was Leishmania in macrophages: 11.19%. O=C(O)C(F)(F)F.[H][C@@]12CCCO[C@]1([H])[C@H](NS(C)(=O)=O)CN(Cc1ccc(C)o1)C2 gave Leishmania in macrophages: 6.39%. Result for CCOc1cccc(C(C(=O)O)N(C)Cc2cc(C)no2)c1 (centres unmarked) was MtTrpRS: 2.041%; Leishmania in macrophages: 18.3%. Cc1cc(=O)c(C(=O)N2CCC(C(O)Cc3ccccc3)CC2)c(C)[nH]1 (centres unmarked) gave MtTrpRS: -1.723%; Leishmania in macrophages: 14.19%. Result for [H][C@@]12C[C@@H](OCc3ccccc3)C[C@]1([H])CN(Cc1cnc(C)nc1)C2 was Leishmania in macrophages: 19.87% and 11.85%.

For O=C(COCc1ccccc1)N1CCN(c2ccc(Cl)cn2)CC1 the result was MtTrpRS: -0.9726%; Leishmania in macrophages: 11.91%. Cc1ccc(-c2nc(CNC(C)CCO)[nH]c2-c2ccccn2)cc1 (centres unmarked) read MtTrpRS: -2.096%; Leishmania in macrophages: 67.9%. With CCN1CC(C(=O)N2CCN(CCn3cccc3)CC2)CC1=O (centres unmarked) the screen gave MtTrpRS: 15.14%; Leishmania in macrophages: 6.384%. For c1cncc(N2CCC(c3ccncc3)CC2)c1 the result was MtTrpRS: 0.2639%; Leishmania in macrophages: 5.333%. Result for Cc1ccc(Cl)cc1N1CCN(CC(=O)NCc2ccco2)CC1 was MtTrpRS: 1.29%; Leishmania in macrophages: -10.06%.

Cc1nn(C)c(C)c1OCC(=O)N1CCCc2c(F)ccc(F)c21 read MtTrpRS: -2.816%; Leishmania in macrophages: -3.867%. With c1ccc(N2CCc3ncnc(C4CC4)c3CC2)nc1 the screen gave MtTrpRS: -3.818%; Leishmania in macrophages: 32.99%. Result for CNC(=O)CSc1nc2c(cnn2Cc2ccc(F)cc2)c(=O)[nH]1 was MtTrpRS: -9.195%; Leishmania in macrophages: 16.68%. With CSc1ccc(-n2nnc(C(=O)O)c2-c2ccccn2)cc1 the screen gave MtTrpRS: -1.751%; Leishmania in macrophages: 10.67%. O=C(NCCSc1cnn[nH]1)c1c[nH]nc1C1CCCCC1 read MtTrpRS: 5.263%; Leishmania in macrophages: -33.01%.

CNC(=O)CCNC(=O)c1ccccc1N1CCOCC1 read MtTrpRS: -0.8081%; Leishmania in macrophages: 30.17%. With COc1cccc(-c2nc(C)c(C(=O)N[C@@H](CC(C)C)C(=O)O)s2)c1 the screen gave MtTrpRS: -24.44%; Leishmania in macrophages: 14.6%. With CCCNC(=O)CNc1ccccc1OCCC(=O)OC the screen gave MtTrpRS: 0.4619%; Leishmania in macrophages: -0.7406%. CN(Cc1cc(Br)cn1C)C(=O)c1cscn1 read MtTrpRS: -2.477%; Leishmania in macrophages: 33.45%. For O=C(NCc1cnc2n1CCN(Cc1ccsc1)CC2)C1CCC1 the result was MtTrpRS: 2.012%.

Result for O=C1C(Nc2nccn3cnnc23)CCN1c1cccc(Cl)c1 (centres unmarked) was MtTrpRS: 7.869%; Leishmania in macrophages: -9.85%. For Cc1nnc(NCC2(c3ccc(Cl)cc3Cl)CCOCC2)c(C#N)c1C the result was MtTrpRS: 4.412%; Leishmania in macrophages: 20.87%. With O=c1[nH]c(-c2ccncc2)ncc1-c1ccnc(N2CCOCC2)n1 the screen gave Leishmania in macrophages: -13.72% and 16.6%. For COc1ccc(-c2nnsc2C(=O)N2CCC(C(N)=O)CC2)cc1 the result was MtTrpRS: -1.232%; Leishmania in macrophages: -2.161%.

3 of the entries, repeated:

Compound	MtTrpRS	Leishmania in macrophages
O=c1[nH]c(-c2ccncc2)ncc1-c1ccnc(N2CCOCC2)n1	-	-13.72 and 16.6
CSc1ccc(-n2nnc(C(=O)O)c2-c2ccccn2)cc1	-1.751	10.67
COc1ccc(-c2nnsc2C(=O)N2CCC(C(N)=O)CC2)cc1	-1.232	-2.161

Measurements from “University of Dundee, Small-Polar-MMV Screening Library” (2021), ChEMBL document CHEMBL3988442.